PubChem BioAssay AID1508588, Peter MacCallum Cancer Centre, 2020
Screen: 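Genome-wide search for knock-downs that heighten vemurafenib action in melanoma cells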 (primary screen). Cells: human WM266.4 melanoma cells (BRAF V600 mutant). Reagents: siRNA pool against human genes, 40 nM. Duration: 96 h from transfection to read-out. Challenge: vemurafenib 300 nM (about IC25), added 48 h after transfection, for 48 h; comparison arm got DMSO vehicle only. Read-out: 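Ratios to non-targeting siRNA for cell gain, counted as DAPI nuclei after minus before drug and averaged over two replicates, and for absorbance-read medium lactate per cell; both binned into fold-change classes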. Reading the numbers: cell gain with vemurafenib: higher = more cell gain than with non-targeting siRNA; lactate per cell with vemurafenib: higher = more lactate made per cell. Rule for the call: 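a knock-down counts as enhancing when its fold-change classes with vehicle and with vemurafenib, taken together, show a stronger drug effect on cell gain or lactate per cell; exact class pairs not stated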. Meaning of the calls: active = enhances vemurafenib effect; inactive = no enhancement seen.
This is one part, drawn at random, of about 18,000 reagents tested. 790 of all reagents (4.4%) count as active. 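Calls rest on a combination of fold-change classes in drug and vehicle arms, not all shown here.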 Unmarked entries are inactive. No sequences are given here.

How did the screen score EXOSC5 [SID152153157]?
cell gain with vemurafenib: 0.83; lactate per cell with vemurafenib: 0.78

What did the screen give for HES2 [SID135624679]?
cell gain with vemurafenib: 0.7; lactate per cell with vemurafenib: 1.93

For GALNT13 [SID152154886], what does the deposit list?
cell gain with vemurafenib: 0.78; lactate per cell with vemurafenib: 0.94

For EXTL2 [SID135622344], how do the results read?
cell gain with vemurafenib: 0.46; lactate per cell with vemurafenib: 0.55

What is on record for ERCC6L [SID152148516]?
cell gain with vemurafenib: 0.54; lactate per cell with vemurafenib: 0.58

How did the screen score CRISPLD1 [SID152152221]?
cell gain with vemurafenib: 1.13; lactate per cell with vemurafenib: 1.1

What is on record for RHOQ [SID152155808]?
cell gain with vemurafenib: 0.48; lactate per cell with vemurafenib: 1.23

How did the screen score MAS1 [SID134310022]?
cell gain with vemurafenib: 0.85; lactate per cell with vemurafenib: 0.9

For KPNA3 [SID134315654], what does the deposit list?
cell gain with vemurafenib: 0.84; lactate per cell with vemurafenib: 0.58

How did the screen score TMEM201 [SID152150814]?
cell gain with vemurafenib: 0.92; lactate per cell with vemurafenib: 0.68

With ACIN1 [SID152156440], what does the deposit list?
cell gain with vemurafenib: 0.85; lactate per cell with vemurafenib: 1.02

With CIAO3 [SID134318280], how do the results read?
cell gain with vemurafenib: 0.74; lactate per cell with vemurafenib: 0.02

For AARSD1 [SID134318740], what was measured?
cell gain with vemurafenib: 0.61; lactate per cell with vemurafenib: 0.98

For ITGB2 [SID135621489], what does the deposit list?
cell gain with vemurafenib: 0.64; lactate per cell with vemurafenib: 0.97

What did the screen give for MYEF2 [SID152146850]?
cell gain with vemurafenib: 0.25; lactate per cell with vemurafenib: 0.52

What did the screen give for LONRF3 [SID152154798]?
cell gain with vemurafenib: 0.47; lactate per cell with vemurafenib: 1.05

With RPAP3 [SID134318544], how do the results read?
cell gain with vemurafenib: 0.15; lactate per cell with vemurafenib: 2.6

What is on record for TMEM11 [SID134310892]?
cell gain with vemurafenib: 0.55; lactate per cell with vemurafenib: 0.58

Which result is listed for COL2A1 [SID152156125]?
cell gain with vemurafenib: 0.32; lactate per cell with vemurafenib: 1.3

How did the screen score TMIGD2 [SID135623082]?
cell gain with vemurafenib: 0.62; lactate per cell with vemurafenib: 1.8

With NKD1 [SID134322810], what was measured?
cell gain with vemurafenib: 0.59; lactate per cell with vemurafenib: 0.62

What is on record for CDCA4 [SID152154753]?
cell gain with vemurafenib: 0.39; lactate per cell with vemurafenib: 1.54

Which result is listed for QDPR [SID152156077]?
cell gain with vemurafenib: 0.86; lactate per cell with vemurafenib: 0.79

What did the screen give for MRPL49 [SID134321440]?
cell gain with vemurafenib: 0.57; lactate per cell with vemurafenib: 1.5

What is on record for ZKSCAN2 [SID152150059]?
cell gain with vemurafenib: 0.27; lactate per cell with vemurafenib: 1.7

What did the screen give for BTD [SID152153036]?
cell gain with vemurafenib: 0.7; lactate per cell with vemurafenib: 1.12

What did the screen give for TPD52 [SID152148168]?
cell gain with vemurafenib: 0.65; lactate per cell with vemurafenib: 0.8

Look-ups from the entries so far:
For “cell gain with vemurafenib”, ERCC6L [SID152148516] shows 0.54
Entry of TPD52 [SID152148168] under “cell gain with vemurafenib”: 0.65
